Some of the results follow. For some of these results: Construct or isoform of the protein are uncertain.
Legend:
Experiment in all cases: protein microarray (ProtoArray v5.0), streptavidin-Alexa Fluor 647
Settings in all cases: 3'-biotin; 20 mM Tris (pH 7.5), 5 mM MgCl2, 100 mM KCl, 0.1% Tween-20, A/T-rich and random oligonucleotide blockers; temperature not stated; high values mean tight binding
[1] = system: PRPSAP2 (human)
[2] = system: PRRG1 (human)
[3] = biological target: T1, PRRG2 (UniProt O14669)
T1 sequence: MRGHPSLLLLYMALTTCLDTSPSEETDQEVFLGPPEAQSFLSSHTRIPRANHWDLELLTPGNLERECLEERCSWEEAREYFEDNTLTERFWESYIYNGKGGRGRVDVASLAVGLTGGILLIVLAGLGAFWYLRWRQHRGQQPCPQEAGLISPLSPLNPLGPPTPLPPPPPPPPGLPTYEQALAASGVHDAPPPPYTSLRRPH

By UniProt entry, the sequences of proteins in these tests, tags left out. Where a name states a change or a piece, a line headed by the entry shows the natural chain unless it says otherwise.
UniProt Q9Y617: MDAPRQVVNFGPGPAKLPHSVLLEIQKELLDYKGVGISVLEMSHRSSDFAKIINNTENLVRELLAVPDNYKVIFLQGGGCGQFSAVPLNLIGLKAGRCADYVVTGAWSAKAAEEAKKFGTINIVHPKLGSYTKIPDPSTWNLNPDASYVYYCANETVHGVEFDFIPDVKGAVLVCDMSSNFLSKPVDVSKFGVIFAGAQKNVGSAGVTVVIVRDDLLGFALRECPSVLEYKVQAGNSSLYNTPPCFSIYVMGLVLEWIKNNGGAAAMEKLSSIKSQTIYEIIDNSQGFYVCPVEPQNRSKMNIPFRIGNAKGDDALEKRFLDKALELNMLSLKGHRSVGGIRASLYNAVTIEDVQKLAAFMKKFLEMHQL

[4] = system: PRRT2 (human)
[5] = system: PRSS23 (human)
[6] = biological target: PSAT1 (UniProt Q9Y617)
[7] = biological target: T2, PSCD2 (UniProt Q99418)
T2 sequence: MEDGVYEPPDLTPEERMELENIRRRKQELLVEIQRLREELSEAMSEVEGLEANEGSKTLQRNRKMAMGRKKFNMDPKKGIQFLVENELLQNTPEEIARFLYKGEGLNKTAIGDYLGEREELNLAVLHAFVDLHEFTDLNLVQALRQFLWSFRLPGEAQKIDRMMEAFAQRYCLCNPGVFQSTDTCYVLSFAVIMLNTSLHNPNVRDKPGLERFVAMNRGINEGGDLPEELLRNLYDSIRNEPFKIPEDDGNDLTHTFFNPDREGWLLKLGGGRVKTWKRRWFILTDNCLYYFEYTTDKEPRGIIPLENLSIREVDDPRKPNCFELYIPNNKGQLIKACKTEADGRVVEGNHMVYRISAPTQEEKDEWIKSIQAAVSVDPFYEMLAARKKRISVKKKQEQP

[8] = system: PSCD4 (human)
[9] = system: PSENEN (human)
[10] = system: PSG11 (human)

GGGAGGCTGAGGCAGG [G4-1 biotinylated (PQS2)]
binding signal [1]: -0.329 z-score
binding signal [2]: -0.33 z-score
binding signal [3]: -0.352 z-score
binding signal [4]: -0.342 z-score
binding signal [5]: -0.3 z-score
binding signal [6]: -0.353 z-score
binding signal [7]: -0.339 z-score
binding signal [8]: -0.303 z-score
binding signal [9]: -0.295 z-score
binding signal [10]: -0.315 z-score

Source: article PMC5996148
